Assay results published in PMC10473914, “Phosphorylation of Ack1 by the Receptor Tyrosine Kinase Mer” (Kinases and phosphatases, 2023).
Results are given in words; binding and its absence hold for the method and conditions named. Binding seen in cells or lysates may run through a third protein. Some entries that bind do so weakly or less than the wild type.

Sequences of proteins named here, by UniProt entry; tags and fusion partners are left off.
UniProt Q07912: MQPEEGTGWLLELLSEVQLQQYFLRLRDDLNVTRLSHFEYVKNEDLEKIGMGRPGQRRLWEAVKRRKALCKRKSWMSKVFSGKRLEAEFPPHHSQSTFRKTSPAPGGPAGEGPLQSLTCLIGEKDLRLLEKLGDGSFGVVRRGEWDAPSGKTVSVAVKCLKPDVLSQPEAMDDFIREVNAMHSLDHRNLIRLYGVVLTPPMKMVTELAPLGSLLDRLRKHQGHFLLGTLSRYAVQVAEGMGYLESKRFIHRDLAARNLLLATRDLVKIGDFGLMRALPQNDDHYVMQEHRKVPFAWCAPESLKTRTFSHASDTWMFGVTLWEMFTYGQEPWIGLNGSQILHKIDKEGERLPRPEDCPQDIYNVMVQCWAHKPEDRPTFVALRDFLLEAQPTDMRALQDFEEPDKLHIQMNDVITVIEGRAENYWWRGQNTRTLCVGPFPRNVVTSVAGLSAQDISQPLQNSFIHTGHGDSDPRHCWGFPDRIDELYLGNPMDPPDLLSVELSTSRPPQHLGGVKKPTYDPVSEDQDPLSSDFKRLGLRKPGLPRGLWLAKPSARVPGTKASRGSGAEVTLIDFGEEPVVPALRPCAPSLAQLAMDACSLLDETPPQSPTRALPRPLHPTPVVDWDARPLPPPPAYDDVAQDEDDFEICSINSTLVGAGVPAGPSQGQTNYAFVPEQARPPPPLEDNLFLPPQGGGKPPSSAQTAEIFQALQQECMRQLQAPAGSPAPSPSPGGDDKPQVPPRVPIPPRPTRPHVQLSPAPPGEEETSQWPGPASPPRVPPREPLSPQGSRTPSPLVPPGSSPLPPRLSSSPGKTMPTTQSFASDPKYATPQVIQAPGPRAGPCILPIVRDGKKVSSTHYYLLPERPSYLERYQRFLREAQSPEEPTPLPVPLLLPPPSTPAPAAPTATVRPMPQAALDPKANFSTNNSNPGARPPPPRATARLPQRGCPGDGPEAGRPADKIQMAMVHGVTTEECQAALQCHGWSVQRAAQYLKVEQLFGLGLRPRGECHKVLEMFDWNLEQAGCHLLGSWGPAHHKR

Target: T1, Mer receptor tyrosine kinase, full length (UniProt Q60805)
T1 sequence: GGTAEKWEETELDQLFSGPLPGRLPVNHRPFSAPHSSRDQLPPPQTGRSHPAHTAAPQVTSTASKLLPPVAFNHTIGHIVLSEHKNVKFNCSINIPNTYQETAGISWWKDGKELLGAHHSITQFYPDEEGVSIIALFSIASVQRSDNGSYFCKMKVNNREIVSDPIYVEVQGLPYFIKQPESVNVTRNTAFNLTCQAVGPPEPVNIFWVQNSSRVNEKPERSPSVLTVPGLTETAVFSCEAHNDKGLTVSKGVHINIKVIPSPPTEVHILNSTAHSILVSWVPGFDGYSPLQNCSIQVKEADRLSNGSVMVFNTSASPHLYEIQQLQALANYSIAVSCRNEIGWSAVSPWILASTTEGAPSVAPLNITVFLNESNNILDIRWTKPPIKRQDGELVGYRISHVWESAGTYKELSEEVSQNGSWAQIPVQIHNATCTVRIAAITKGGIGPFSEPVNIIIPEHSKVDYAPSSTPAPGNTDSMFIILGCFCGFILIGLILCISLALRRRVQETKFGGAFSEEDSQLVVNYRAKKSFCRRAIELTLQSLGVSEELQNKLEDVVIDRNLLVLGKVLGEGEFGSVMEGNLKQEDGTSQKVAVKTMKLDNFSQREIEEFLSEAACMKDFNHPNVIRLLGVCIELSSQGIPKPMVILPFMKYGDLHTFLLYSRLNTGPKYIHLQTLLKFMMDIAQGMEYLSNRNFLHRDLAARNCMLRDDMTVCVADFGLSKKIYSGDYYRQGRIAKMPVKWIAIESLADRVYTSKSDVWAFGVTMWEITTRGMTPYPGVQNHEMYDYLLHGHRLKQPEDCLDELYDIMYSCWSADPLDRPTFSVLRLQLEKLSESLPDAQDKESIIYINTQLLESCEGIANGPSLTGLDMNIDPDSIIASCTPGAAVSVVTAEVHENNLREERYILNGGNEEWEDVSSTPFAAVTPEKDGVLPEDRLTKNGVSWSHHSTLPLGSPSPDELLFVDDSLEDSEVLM
Experiment: co-IP; HEK293T lysates (0.8 mg) with 1.4 ug anti-Mer antibody (ab184086) and Protein A-agarose at 4 C overnight; anti-Flag Western blot; cells unstimulated or stimulated with 120 ng/mL Gas6 for 15 min

- binding: binds
Substance: Flag-tagged full-length Ack1, wild type (from UniProt Q07912 1-1038) (enzyme)
